Our source for the survivor count and T/C values is PubChem BioAssay AID256 (DTP/NCI, 2004).

The list does not hold the whole screen: it is rich in T/C values a quarter to a half above the control, in often repeated tests (any T/C) and in doses without a T/C. Other doses and runs of a compound stand elsewhere. T/C gives the treated animals as a percentage of the vehicle group. Some entries give survivors of the animals treated and no T/C: the source holds a T/C of zero for them, seemingly a mark for toxic or unscored doses. Some survivor counts are full or nearly so, which does not show that the dose was tolerated: the source hardly ever lists a survival T/C far under the control, and the zero likely stands for such cases as well. Survivors were counted at the toxicity check, usually on the fifth day, unless a day is given; later deaths do not show. Schedules are NCI's codes, taken here to give the interval after Q, in days (D) or hours (H), and the number of doses after X. Some doses were run more than once; their values stand side by side, smallest first. Where survival is the endpoint, the PubChem record calls one and a half times the control and up active, and a quarter to a half above the control has no call in these data; cut-offs in other NCI protocols can differ. Some T/C values are followed by the survivors on the day toxicity was checked, most often the fifth; without a count, all were alive then.

The subject of the assay is CD2F1 mice, L1210 leukemia ip, survival T/C. The experiment in a line: NCI In Vivo Anticancer Drug Screen. Data for tumor model L1210 Leukemia (intraperitoneal) in CD2F1 (CDF1) mice. The settings on record: higher T/C = longer survival. The gist of the method: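 Tumor-bearing mice (transplanted tumor) were split into treated and vehicle control groups, and the measured endpoint of each treated group was divided by that of its vehicle controls.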

Where [1] appears, read: T/C endpoint: mean survival time, dose: 200.0 mg/kg/injection, schedule: Q04DX003 (ip), vehicle: saline with Tween-80.
[2] abbreviates: T/C endpoint: mean survival time, dose: 400.0 mg/kg/injection, schedule: Q04DX003 (ip), vehicle: saline with Tween-80.
[3] abbreviates: T/C endpoint: mean survival time, dose: 400.0 mg/kg/injection, schedule: Q01DX009 (ip), vehicle: saline with Tween-80.
[4] abbreviates: T/C endpoint: mean survival time, dose: 400.0 mg/kg/injection, schedule: Q01DX001 (ip), vehicle: saline with Tween-80.
Where [5] appears, read: T/C endpoint: mean survival time, dose: 100.0 mg/kg/injection, schedule: Q04DX003 (ip), vehicle: saline with Tween-80.
Where [6] appears, read: T/C endpoint: mean survival time, dose: 200.0 mg/kg/injection, schedule: Q01DX009 (ip), vehicle: saline with Tween-80.

Turning to `C=C(Br)CNC(=O)OC`, the survivor count is on record as 4 of 6 under setting [1] and 0 of 6 under setting [2]. For the compound `CC1CC(C)(C)CC(=O)O1` (stereo not given), the survivor count runs as follows: (T/C endpoint: mean survival time, dose: 150.0 mg/kg/injection, schedule: Q01DX001 (ip), vehicle: saline) 1 of 6; (T/C endpoint: mean survival time, dose: 300.0 mg/kg/injection, schedule: Q01DX001 (ip), vehicle: saline) 0 of 6. With `CC(C)C(=NO)C(C)C`, the survivor count under setting [3] is 6 of 6. Take `Cc1csc(C)[n+]1C`: the survivor count (T/C endpoint: mean survival time, dose: 200.0 mg/kg/injection, schedule: Q01DX001 (ip), vehicle: saline with Tween-80) is 3 of 6 and the survivor count under setting [4] is 0 of 6.

As for `CN1CCN(c2ccccc2N)CC1`, the survivor count runs as follows: under setting [5], 0 of 6; under setting [1], 0 of 6; under setting [2], 0 of 6. `CN(C)N=Nc1cn[nH]c1C(N)=O`: the T/C is 141 % of control (T/C endpoint: mean survival time, dose: 50.0 mg/kg/injection, schedule: Q01DX009 (ip), vehicle: Klucel (hydroxypropylcellulose) (HPC)) and 131 % of control (T/C endpoint: mean survival time, dose: 200.0 mg/kg/injection, schedule: Q01DX009 (ip), vehicle: Klucel (hydroxypropylcellulose) (HPC)). Take `COc1ccc2c(c1)CCN1C2CCN2CCCC21` (stereo not given): the survivor count under setting [2] was 6 of 6.

As for `CC1SC(=Nc2ccc(S(N)(=O)=O)cc2)NC1=O` (stereo not given), the survivor count is on record as 6 of 6 (T/C endpoint: mean survival time, dose: 100.0 mg/kg/injection, schedule: Q01DX001 (ip), vehicle: saline with Tween-80) and 4 of 6 under setting [4]. As to `O=[N+]([O-])C1CC=CCC1C(Cl)(Cl)Cl` (stereo not given), the survivor count runs as follows: (T/C endpoint: mean survival time, dose: 20.0 mg/kg/injection, schedule: Q01DX009 (ip), vehicle: saline with Tween-80) 0 of 6; under setting [5], 0 of 6; under setting [1], 0 of 6; under setting [2], 0 of 6.

In the case of `CCOC(=O)Nc1cc2c(c(N)n1)N=C(c1ccccc1)CO2`, the T/C was 125 % of control (T/C endpoint: median survival time, dose: 400.0 mg/kg/injection, schedule: Q01DX009 (ip), vehicle: saline with Tween-80); 136 [5 of 6 alive] and 144 % of control (T/C endpoint: median survival time, dose: 800.0 mg/kg/injection, schedule: Q01DX009 (ip), vehicle: saline with Tween-80). `CC(C)C1(C(=O)NNC(=O)CCCc2ccc(N(CCCl)CCCl)cc2)OC2(O)CCCCCN2C1=O` (stereo not given): for the setting “T/C endpoint: mean survival time, dose: 50.0 mg/kg/injection, schedule: Q04DX003 (ip), vehicle: DMSO”, the T/C is 127 % of control. Also, under “T/C endpoint: mean survival time, dose: 100.0 mg/kg/injection, schedule: Q04DX003 (ip), vehicle: DMSO”, the survivor count was 6 of 6. With `NC(=O)C(O)(c1ccc(Br)cc1)C(Cl)Cl` (stereo not given), the T/C (T/C endpoint: mean survival time, dose: 200.0 mg/kg/injection, schedule: Q04DX002 (ip), vehicle: saline with Tween-80) is 135 % of control [2 of 3 alive]. The survivor count was 6 of 10 (T/C endpoint: mean survival time, dose: 228.0 mg/kg/injection, schedule: Q04DX002 (ip), vehicle: saline with Tween-80) and 0 of 3 (T/C endpoint: mean survival time, dose: 400.0 mg/kg/injection, schedule: Q04DX002 (ip), vehicle: saline with Tween-80). For `CNNCCC(=O)NC(C)C`, where the note is “T/C endpoint: mean survival time, dose: 400.0 mg/kg/injection, schedule: Q04DX003 (ip), vehicle: saline”, the survivor count is listed as 1 of 6.

Consider `CCCCCCCCC(=O)N1CCOCC1`, for which the survivor count runs as follows: under setting [5], 3 of 6; under setting [6], 0 of 6; under setting [1], 0 of 6; (T/C endpoint: mean survival time, dose: 225.0 mg/kg/injection, schedule: Q04DX003 (ip), vehicle: saline) 6 of 6; (T/C endpoint: mean survival time, dose: 335.0 mg/kg/injection, schedule: Q04DX003 (ip), vehicle: saline) 1 of 6; under setting [3], 0 of 6. Further, under setting [2], the survivor count is listed as 0 of 6. With `CC(=O)c1ccc2c3c(ccc([N+](=O)[O-])c13)C(=O)OC2=O`, the survivor count under setting [2] was 1 of 6. For `CC(=O)c1ccccc1[N+](=O)[O-]`, the survivor count under setting [3] was 5 of 6.

`O=C(O)CS(=O)(=O)c1ccccc1`: the survivor count (T/C endpoint: mean survival time, dose: 200.0 mg/kg/injection, schedule: Q01DX009 (ip), vehicle: saline) is 6 of 6. As for `CC(=O)/C(=N/O)c1ccccc1`, the survivor count (T/C endpoint: mean survival time, dose: 300.0 mg/kg/injection, schedule: Q01DX009 (ip), vehicle: saline with Tween-80) is 0 of 6. Regarding `CCOC(=O)c1ccc(NC/C(CN)=N/O)cc1`, the survivor count (T/C endpoint: mean survival time, dose: 300.0 mg/kg/injection, schedule: Q01DX001 (ip), vehicle: other) was 6 of 6. On to `O=C(SCCNCCNC1CC2CCC1C2)c1ccccc1` (stereo not given), for which the survivor count (T/C endpoint: mean survival time, dose: 75.0 mg/kg/injection, schedule: Q01DX001 (ip), vehicle: saline) was 0 of 6.

`COc1cccc2c1C(=O)c1c(O)c3c(c(O)c1C2=O)C[C@@](O)(/C(CO)=N/NC(=O)c1ccc(Cl)c(Cl)c1)C[C@@H]3OC1CC(N)C(O)C(C)O1` (stereo not given in full): the T/C is 132 % of control (T/C endpoint: mean survival time, dose: 4.0 mg/kg/injection, schedule: Q01DX009 (ip), vehicle: water) and 138 % of control (T/C endpoint: mean survival time, dose: 8.0 mg/kg/injection, schedule: Q01DX009 (ip), vehicle: water). Also, the survivor count (T/C endpoint: mean survival time, dose: 64.0 mg/kg/injection, schedule: Q01DX009 (ip), vehicle: water) is reported as 2 of 6. As to `C[n+]1cccc(NC(=O)COc2ccc(Cl)c(Cl)c2)c1`, the survivor count is on record as 3 of 6 under setting [1] and 0 of 6 under setting [2]. Consider `CC(=O)C1=C(O)C2(O)C(=O)c3c(c(C)c4ccc(C)c(O)c4c3O)CC2C(N)C1=O` (stereo not given), for which, under “T/C endpoint: mean survival time, dose: 120.0 mg/kg/injection, schedule: Q01DX009 (ip), vehicle: saline + alcohol”, the survivor count was 0 of 10 and 0 of 6.

On to `CC1C2CCC(C2)C1OC(=O)c1ccccc1C(=O)O` (stereo not given) (tested in a mixture with another compound), for which the survivor count is 3 of 6 under setting [6] and 1 of 6 under setting [2].

In the case of `C1CC2N=NC1C21CC1.[Cl][Cu][Cl]`, for the setting “T/C endpoint: mean survival time, dose: 25.0 mg/kg/injection, schedule: Q04DX002 (ip), vehicle: saline with Tween-80”, the survivor count is 1 of 3. For `CCOC(=O)c1cc(C=O)nc2c(Cl)cc(Cl)cc12`, the survivor count under setting [1] was 6 of 6.
